The text below walks through data of paper PMC12525728, “Safety, Pharmacokinetics, Translational and Molecular Mechanistic Insights on the Prostate Cancer Recurrence Suppressor Pseurotin A” (Molecules, 2025).

For the series, the system named is recurrent CWR-R1ca tumors. Kind of series: RNA-Seq differential gene expression of recurrent tumors, PsA versus VC. The format is in vivo, athymic male nude mice. The conditions noted are these: PsA 20 mg/kg vs VC recurrent tumors.

Take `CC/C=C\[C@H](O)[C@H](O)C1=C(C)C(=O)[C@]2(O1)C(=O)N[C@@](OC)(C(=O)c1ccccc1)[C@@H]2O` [PsA, pseurotin A]: the “number of significantly downregulated genes” value (log2FC ≤ −1.5, adjusted p ≤ 0.05, FDR ≤ 0.1) was found to be 352. Moreover, the “number of significantly upregulated genes” value (log2FC ≥ 1.5, adjusted p ≤ 0.05, FDR ≤ 0.1) is 486.
